Results are given in words; binding and its absence hold for the method and conditions named. Binding seen in cells or lysates may run through a third protein. These calls come from enrichment with a bait or labelling near it, and not all partners need be listed.
B1: mtATP8 (protein, UniProt P03930 1-67)
chain: MPQLDTSTWFITIISSMITLFILFQLKVSSQTFPLAPSPKSLTTMKVKTPWELKWTKIYLPHSLPQQ
B2: Fgb (protein, UniProt Q8K0E8 20-481)
chain: ADDDYDEPTDSLDARGHRPVDRRKEEPPSLRPAPPPISGGGYRARPAKATANQKKVERRPPDAGGCLHADTDMGVLCPTGCTLQQTLLNQERPIKSSIAELNNNIQSVSDTSSVTFQYLTLLKDMWKKKQAQVKENENVINEYSSILEDQRLYIDETVNDNIPLNLRVLRSILEDLRSKIQKLESDISAQMEYCRTPCTVSCNIPVVSGKECEEIIRKGGETSEMYLIQPDTSIKPYRVYCDMKTENGGWTVIQNRQDGSVDFGRKWDPYKKGFGNIATNEDAKKYCGLPGEYWLGNDKISQLTRMGPTELLIEMEDWKGDKVKAHYGGFTVQNEASKYQVSVNKYKGTAGNALMDGASQLVGENRTMTIHNGMFFSTYDRDNDGWVTTDPRKQCSKEDGGGWWYNRCHAANPNGRYYWGGLYSWDMSKHGTDDGVVWMNWKGSWYSMRRMSMKIRPFFPQQ
B3: Gys1 (protein, UniProt Q9Z1E4 1-738)
chain: MPLSRSLSVSSLPGLEDWEDEFDPENAVLFEVAWEVANKVGGIYTVLQTKAKVTGDEWGDNYYLVGPYTEQGVRTQVELLEPPTPELKRTLDSMNSKGCKVYFGRWLIEGGPLVVLLDVGASAWALERWKGELWDTCNIGVPWYDREANDAVLFGFLTTWFLGEFLAQNEEKPYVVAHFHEWLAGVGLCLCRARRLPVATIFTTHATLLGRYLCAGAVDFYNNLENFNVDKEAGERQIYHRYCMERAAAHCAHVFTTVSQITAIEAQHLLKRKPDIVTPNGLNVKKFSAMHEFQNLHAQSKARIQEFVRGHFYGHLDFNLDKTLYFFIAGRYEFSNKGADVFLEALARLNYLLRVNGSEQTVVAFFIMPARTNNFNVETLKGQAVRKQLWDTANTVKEKFGRKLYESLLVGSLPDMNKMLDKEDFTMMKRAIFATQRQSFPPVCTHNMLDDSSDPILTTIRRIGLFNSSADRVKVIFHPEFLSSTSPLLPVDYEEFVRGCHLGVFPSYYEPWGYTPAECTVMGIPSISTNLSGFGCFMEEHIADPSAYGIYILDRRFRSLDDSCSQLTSFLYSFCQQSRRQRIIQRNRTERLSDLLDWKYLGRYYMSARHMALAKAFPDHFTYEPHEVDATQGYRYPRPASVPPSPSLSRHSSPHQSEDEEEPRDGPLGEDSERYDEEEEAAKDRRNIRAPEWPRRASCSSSTGGSKRSNSVDTGPSSSLSTPTEPLSPTSSLGEERN
B4: Tha1 (protein, UniProt Q6XPS7 1-400)
chain: MLCSLFRAAMLRSLFRATVPGLRVPWAQWSRNWAGVPAHVVDLRSDTVTRPGPAMRRAMAEAVVGDDDYGEDPTVHELQEKAAELLGVERTLFVPTNTMANLISVMGHCRRRGSQVLLGQECHLHVYEQGGVAQIAGVHSHPLPDLPYGTLDLNELERALTRGSGSPYHPVCELVYLENTHSSAGGRVLPVDYLRQVCLLAHAHGARVHMDGARLMNAAVALRIPPARLVEHCDSVSFCFSKGLGAPVGALVGGSKDFIGEAWRLRKALGGGMRQAGVLAAAALVGLAEAEEVLPRDHENAQRFAKGLQDLASPICSVDPATVETNMVLVQVAGLPPSELCQRLQAVSAEEVAQTGRAVRVLLFPWTEQSVRAVWHRDVSAQDTELALKKWEFVLRQLRP
B5: Mrpl37 (protein, UniProt Q921S7 30-423)
chain: AYEWGVRSTRKPEPRPLDRVYEIPGLEPITYEGKKHFVPWLARPIFPPWERGWNDPRFHRAAPIHEQTLYKEEPCYIFHQRCRLLEGMKQALWLTKTKLIEGLPKKVLSLVDDPANHIENQEQRVLDIISHARLWHSTEDIPKRETYCPLIVDSLIQLCKSQILKHPSLARRTSAQNCTLATTWNRESLLLQVRGTSSTILSAKDPLPVIASREEVEATRSHVLETFYPISPTIDLQECHVYEVKDDTGFQEGYPYPHPHTLYFLEKANLRPQRFLPEQLRAKMLLFAFANALAQARLLYGNTAKVLEQPIVVQSVGTDGRVFQFLVLQLNTTDLASSEGVKNLVWTDSDQLLYRHFWCRPVIKKKVVVEPVGPVDFQPETFRKFLALYLHGVV
B6: Hspb6 (protein, UniProt Q5EBG6 1-162)
chain: MEIPVPVQPSWLRRASAPLPGFSAPGRLFDQRFGEGLLEAELASLCPAAIAPYYLRAPSVALPTAQVSTDSGYFSVLLDVKHFLPEEISVKVVDDHVEVHARHEERPDEHGFIAREFHRRYRLPPGVDPAAVTSALSPEGVLSIQATPASAQAQLPSPPAAK
B7: Ndufs5 (protein, UniProt Q99LY9 1-106)
chain: MPFLDIQKKLGISLDRHFMFLSAEQPYKNAARCHAFEKEWIECAHGIGGTRAKKECKIEFDDFEECLLRYKTMRRMHDIKKQREKLMKEGKYTPPPHHSGREEPRP
B8: Timm21 (protein, UniProt Q8CCM6 19-244)
chain: LGRQLLPHFVFTKACFKTQPLRWGLREQKITVQPRTVLRFTQKTFWTQGPDPRKAKEDSTKQVSIRRNQREETGVSMSQKVREAGRDVSYLIVVLFGVGLTGGLLYAIFKELFFSSSPNIIYGKALGKCRTHPEVIGVFGEPLKGYGEMSRRGRRQHVRFSEYVNNGLKRIRVKFYIEGSEPGKQGTVHAEVEENPGSGQFEFRYIFVEVTPTRSIIVEDNRSEQS
B9: Ugp2 (protein, UniProt Q91ZJ5 1-508)
chain: MSRFVQDLSKAMSQDGASQFQEVILQELELSVKKELEKILTTAASHEFEHTKKDLDGFRKLFHRFLQEKGPSVDWGKIQRPPEDSIQPYEKIKARGLPDNISSVLNKLVVVKLNGGLGTSMGCKGPKSLIGVRNENTFLDLTVQQIEHLNKTYNTDVPLVLMNSFNTDEDTKKILQKYNHCRVKIYTFNQSRYPRINKESLLPIAKDVSYSGENTEAWYPPGHGDIYASFYNSGLLDTFIEEGKEYIFVSNIDNLGATVDLYILNHLMNPPNGKRCEFVMEVTNKTRADVKGGTLTQYEGKLRLVEIAQVPKAHVDEFKSVSKFKIFNTNNLWISLGAVKRLQEQNAIDMEIIVNPKTLDGGLNVIQLETAVGAAIKSFENSLGINVPRSRFLPVKTTSDLLLVMSNLYSLNAGSLTMSEKREFPTVPLVKLGSSFTKVQDYLRRFESIPDMLELDHLTVSGDVTFGKNVSLKGTVIIIANHGDRIDIPPGAVLENKIVSGNLRILDH

Sequences of proteins named here, by UniProt entry; tags and fusion partners are left off. A change or cut given only in a name is not applied to a line headed by its entry. Residues count along the entry.
UniProt P61961: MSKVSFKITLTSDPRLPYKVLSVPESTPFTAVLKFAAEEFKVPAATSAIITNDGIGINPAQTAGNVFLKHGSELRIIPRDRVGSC
UniProt Q8JZQ2, residues 67-802: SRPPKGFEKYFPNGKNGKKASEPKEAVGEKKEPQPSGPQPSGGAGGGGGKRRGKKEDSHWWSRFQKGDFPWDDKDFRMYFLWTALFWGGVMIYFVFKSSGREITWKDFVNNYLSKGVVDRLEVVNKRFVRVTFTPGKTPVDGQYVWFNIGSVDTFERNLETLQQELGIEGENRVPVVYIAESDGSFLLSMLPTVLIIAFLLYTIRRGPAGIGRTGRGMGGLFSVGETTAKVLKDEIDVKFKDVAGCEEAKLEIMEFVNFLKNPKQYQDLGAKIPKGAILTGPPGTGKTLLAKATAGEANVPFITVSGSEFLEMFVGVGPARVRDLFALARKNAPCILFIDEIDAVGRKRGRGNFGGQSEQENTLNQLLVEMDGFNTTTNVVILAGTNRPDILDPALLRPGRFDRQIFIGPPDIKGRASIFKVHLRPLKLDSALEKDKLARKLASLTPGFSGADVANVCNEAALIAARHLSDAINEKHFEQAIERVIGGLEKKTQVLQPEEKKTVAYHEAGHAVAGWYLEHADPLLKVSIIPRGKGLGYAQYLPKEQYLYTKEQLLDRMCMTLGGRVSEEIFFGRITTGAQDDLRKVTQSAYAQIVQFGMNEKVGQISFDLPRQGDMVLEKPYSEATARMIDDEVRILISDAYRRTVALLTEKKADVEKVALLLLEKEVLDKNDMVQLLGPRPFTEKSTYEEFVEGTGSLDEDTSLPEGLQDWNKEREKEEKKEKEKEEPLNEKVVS
UniProt Q9JMC3: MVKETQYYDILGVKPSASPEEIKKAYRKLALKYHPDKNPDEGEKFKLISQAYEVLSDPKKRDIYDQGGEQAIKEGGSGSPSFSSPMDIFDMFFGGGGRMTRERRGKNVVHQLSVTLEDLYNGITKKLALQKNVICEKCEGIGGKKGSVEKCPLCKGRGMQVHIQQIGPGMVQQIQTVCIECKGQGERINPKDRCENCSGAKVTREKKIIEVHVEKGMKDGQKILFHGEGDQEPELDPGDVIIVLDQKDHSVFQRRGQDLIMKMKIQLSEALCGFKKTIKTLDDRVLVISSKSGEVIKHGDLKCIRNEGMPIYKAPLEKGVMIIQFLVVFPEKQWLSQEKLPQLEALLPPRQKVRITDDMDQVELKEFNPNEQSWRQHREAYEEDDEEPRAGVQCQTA
UniProt O54950: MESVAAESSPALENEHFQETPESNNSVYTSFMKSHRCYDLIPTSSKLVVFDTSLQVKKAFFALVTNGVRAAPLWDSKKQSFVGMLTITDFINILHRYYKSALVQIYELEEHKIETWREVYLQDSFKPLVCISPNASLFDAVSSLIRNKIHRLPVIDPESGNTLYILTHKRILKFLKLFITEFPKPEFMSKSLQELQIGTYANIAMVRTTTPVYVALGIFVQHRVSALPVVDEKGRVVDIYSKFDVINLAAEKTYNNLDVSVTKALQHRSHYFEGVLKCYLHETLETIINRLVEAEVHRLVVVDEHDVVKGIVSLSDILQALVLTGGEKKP
UniProt P06909, residues 19-1234: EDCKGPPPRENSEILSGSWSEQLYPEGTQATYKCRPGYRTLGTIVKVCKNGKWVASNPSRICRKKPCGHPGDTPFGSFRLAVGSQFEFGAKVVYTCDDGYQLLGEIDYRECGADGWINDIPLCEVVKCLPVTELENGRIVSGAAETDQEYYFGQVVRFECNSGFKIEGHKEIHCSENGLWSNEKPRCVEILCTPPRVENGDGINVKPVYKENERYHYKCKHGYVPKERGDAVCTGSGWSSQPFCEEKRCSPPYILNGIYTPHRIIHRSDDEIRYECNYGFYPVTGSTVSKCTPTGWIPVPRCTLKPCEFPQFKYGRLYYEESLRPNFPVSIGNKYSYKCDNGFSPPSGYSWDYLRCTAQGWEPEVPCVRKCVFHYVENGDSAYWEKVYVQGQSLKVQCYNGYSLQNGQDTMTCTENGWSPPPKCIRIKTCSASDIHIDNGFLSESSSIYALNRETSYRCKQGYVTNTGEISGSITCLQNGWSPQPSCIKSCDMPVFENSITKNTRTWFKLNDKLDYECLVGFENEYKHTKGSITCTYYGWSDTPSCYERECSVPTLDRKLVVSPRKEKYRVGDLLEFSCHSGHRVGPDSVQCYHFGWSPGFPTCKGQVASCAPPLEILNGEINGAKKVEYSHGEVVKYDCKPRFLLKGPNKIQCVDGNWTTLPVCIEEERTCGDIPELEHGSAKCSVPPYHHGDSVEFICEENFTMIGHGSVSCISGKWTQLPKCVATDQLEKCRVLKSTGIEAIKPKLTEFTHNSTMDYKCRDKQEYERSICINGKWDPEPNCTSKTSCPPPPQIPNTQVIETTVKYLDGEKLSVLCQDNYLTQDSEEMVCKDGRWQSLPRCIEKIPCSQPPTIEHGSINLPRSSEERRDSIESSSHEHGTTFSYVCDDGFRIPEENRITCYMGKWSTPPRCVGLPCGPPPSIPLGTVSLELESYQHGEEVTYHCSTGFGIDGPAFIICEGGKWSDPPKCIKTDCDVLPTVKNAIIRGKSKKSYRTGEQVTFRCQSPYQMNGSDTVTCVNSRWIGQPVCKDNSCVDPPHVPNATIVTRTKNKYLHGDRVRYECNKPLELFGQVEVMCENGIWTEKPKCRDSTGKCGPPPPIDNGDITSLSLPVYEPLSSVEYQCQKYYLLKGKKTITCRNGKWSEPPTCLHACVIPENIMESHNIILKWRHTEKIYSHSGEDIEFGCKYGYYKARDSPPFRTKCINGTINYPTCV
UniProt O35678: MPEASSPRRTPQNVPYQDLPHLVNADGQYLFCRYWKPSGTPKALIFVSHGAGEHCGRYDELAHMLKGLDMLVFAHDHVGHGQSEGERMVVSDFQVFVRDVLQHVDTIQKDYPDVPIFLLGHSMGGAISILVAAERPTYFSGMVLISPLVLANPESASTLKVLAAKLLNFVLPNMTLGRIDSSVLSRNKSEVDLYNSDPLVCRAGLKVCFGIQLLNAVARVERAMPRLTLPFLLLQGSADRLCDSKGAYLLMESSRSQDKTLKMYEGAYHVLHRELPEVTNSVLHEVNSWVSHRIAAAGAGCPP

target: Flag-6×His-tagged Ufm1ΔSC (UniProt P61961); assay: affinity purification with mass spectrometry; heart tissue of Tg-Ufm1 mice (NTg mice as control) lysed in NP-40 lysis buffer; lysates with Dynabeads His-Tag Isolation and Pulldown at 4 °C for 30 min, washed five times, eluted with 300 mM imidazole; LC-MS/MS; proteins of the control filtered out, unique peptide number ≥ 2

binding, binds:
Afg312 (from UniProt Q8JZQ2 67-802)
Dnaja4 (from UniProt Q9JMC3 1-397)
Prkag1 (from UniProt O54950 1-330)
Cfh (from UniProt P06909 19-1234)
Mgll (from UniProt O35678 1-303)
Hk1 (from UniProt P17710-3)
B1
B2
B3
B4
B5
B6
B7
B8
B9

— publication PMC10657630
